This passage reports isolated mass and isolated yield results from patent publication US8598314B2 (priority 2007, dated 2013).

Series [1] in a line: general procedure: Fmoc solid-phase peptide synthesis; modified trityl resin; p-nitrophenyl carbonate Wang resin; Rink amide resin; HBTU/HOBt. The conditions noted are these: whole synthesis.
Series [2] is described as follows: general procedure: Fmoc solid-phase peptide synthesis; p-nitrophenyl carbonate Wang resin; HBTU/HOBt. The following applies: whole synthesis, scale 100 umol.

Take GLP-1(7-37)-γ-Abu-N^ε2Lys-(Pyr)-WAP-OH: in series [1] (scale 340 umol), the isolated mass amounted to 8.5 mg and the isolated yield came to 2.1% yield.
In series [1] (scale 110 umol), “[^14Leu,^25Phe]Exendin-4(1-28)-γ-Abu-CONH-lisinopril diacid” had an isolated mass of 21 mg and an isolated yield of 5.5%.
In the case of “[^14Leu,^28Gln]Exendin-4-(1-32)-fGLP-1-(33-37)-miniPEG-(S)-2,6-diamino-1-(pyrrolidin-2-cyano-1-yl)hexan-1- amide”, in series [2], the isolated mass was found to be 49.5 mg and the isolated yield worked out at 16%.
Regarding “[^14Leu,^25Phe]Exendin-4(1-28)-Gly-Gly-CONH-Lisinopril diacid”, in series [1] (scale 110 umol), the isolated mass stood at 23.3 mg and the isolated yield came out at 5.7%.
